Results reported in PMC11984319.
These are yes or no findings as the source states them, for the method shown. In cells and extracts the contact can be indirect. Some binding calls cover weakened binding; strength is not graded here. Tags and fused reporters may be left off the sequences shown.

Target: T1, HA-IRX5 (UniProt P78411)
T1 sequence: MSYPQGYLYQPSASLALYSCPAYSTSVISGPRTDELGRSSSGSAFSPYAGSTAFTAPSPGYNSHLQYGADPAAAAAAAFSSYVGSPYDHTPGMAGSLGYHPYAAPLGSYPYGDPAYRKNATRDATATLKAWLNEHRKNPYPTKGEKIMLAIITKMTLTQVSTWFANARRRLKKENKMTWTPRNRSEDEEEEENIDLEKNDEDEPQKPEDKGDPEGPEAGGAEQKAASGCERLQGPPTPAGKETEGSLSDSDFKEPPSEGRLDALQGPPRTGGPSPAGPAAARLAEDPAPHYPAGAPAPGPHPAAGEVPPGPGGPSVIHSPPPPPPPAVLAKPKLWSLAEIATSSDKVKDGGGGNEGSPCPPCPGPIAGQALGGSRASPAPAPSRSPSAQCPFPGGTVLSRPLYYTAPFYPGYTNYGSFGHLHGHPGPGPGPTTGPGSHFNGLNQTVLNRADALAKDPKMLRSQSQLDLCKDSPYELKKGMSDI
Assay: co-IP; HEK-293T cells transiently cotransfected with HA-IRX5 and FLAG-HMGN4; extracts incubated with anti-IRX5 or IgG and Protein A/G agarose beads overnight at 4°C; immunoblot

FLAG-HMGN4 (from UniProt O00479 1-90)
binding: binds
